# Reference: PubChem BioAssay AID504834 (National Center for Advancing Translational Sciences (NCATS), 2011)
# Hit rate of the full screen: of about 320,000 compounds, about 22,000 (6.9%) were called active. Inconclusive means that the source gave no clear call. Such entries were picked first, then a sample of the others. Calls follow the shape of the dose curve; as a rule, active = well fitted inhibition curve with a large enough effect; inconclusive = small, poorly fitted or top-dose-only effect, or another doubt; inactive = no such curve, though single readings can be large or run the other way. Where the call is inconclusive, the potency comes from a doubtful curve fit.
# Assay: Primary qHTS for delayed death inhibitors of the malarial parasite plastid, 96 hour incubation
# Conditions: P. falciparum luciferase reporter growth; series mostly up to 28.7 µM; activity change, negative = inhibition: at the top concentration
# In short: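 Delayed-death screen, second-generation endpoint: infected erythrocytes, 2% hematocrit, 0.05% parasitemia final; 96 hours at 37 C, 5% CO2; luciferase detection reagent; luminescence decrease equals reduced growth.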
# % is scaled to controls: 0 for no effect and ±100 for the full control effect; potency is read from the fitted curve at half-maximal effect.
SMILES,"activity change, negative = inhibition",Potency
COC(=O)c1ccc(NS(=O)(=O)c2ccc3[nH]c(=O)oc3c2)cc1,inactive: 23.5%,
Cn1ccc(C(=O)NC(=S)N2CCSCC2)n1,inactive: 32.5%,
CCN(CC)Cc1ccccc1CNC(=O)c1cccc(S(=O)(=O)Nc2ccc3c(c2)OCO3)c1,,"inconclusive: 18.5 µM [inhibitor, single point]"
COc1cc(C(=O)NC(C)C2CC3CCC2C3)ccc1OC(F)F (stereo unspecified),,"inconclusive: 16.5 µM [inhibitor, single point]"
CC(=O)Nc1ccc(S(=O)(=O)N2CCSC2C(=O)O)cc1 (stereo unspecified),,active: 11.7 µM
Cc1ccc2oc(C(=O)Nc3nnc(C)s3)c(C)c2c1,inactive: 187%,
Nc1nc2nc(-c3ccc(OCc4ccccc4)cc3)cc(C(F)(F)F)n2n1,,"inconclusive: 11.7 µM [inhibitor, single point]"
CC(=O)N1N=C(c2c(O)n(C)c(=O)n(C)c2=O)CC1c1ccccc1 (stereo unspecified),,active: 2.62 µM
COc1cc(CC(=O)N(C)CC(=O)Nc2ccc(Cl)c(C(F)(F)F)c2)cc(OC)c1OC,,"inconclusive: 11.7 µM [inhibitor, partial curve]"
COc1ccc(/C=C/C(=O)NNc2c(F)c(F)cc(F)c2F)cc1OC,,"inconclusive: 0.0026 µM [inhibitor, full curve, poor fit]"
CS/C(=C\[N+](=O)[O-])Nc1ccc(OC(F)(F)F)cc1,inactive: 1.8%,
Cc1[nH]c(=O)[nH]c(=O)c1S(=O)(=O)N1CCC(C(=O)NC(C)c2ccccc2)CC1 (stereo unspecified),,active: 4.15 µM
COC(Cc1ccccc1N1CCCC1=O)OC,inactive: -32%,
C/C(=N\NC(=O)c1cccc2ccccc12)c1ccccn1,,active: 2.08 µM
CSc1n[nH]c(-c2ccc(C(F)(F)F)cc2)n1,inactive: 87.3%,
O=C(Oc1ccccc1C(=O)N1CCOCC1)c1cccc(Br)c1,,"inconclusive: 18.5 µM [inhibitor, single point]"
CCOC(=O)N1CCN(S(=O)(=O)c2ccc(F)c(C(=O)Nc3ccc(C(C)C)cc3)c2)CC1,,"inconclusive: 14.7 µM [inhibitor, partial curve, poor fit]"
CN(c1ccccc1C(=O)O)S(=O)(=O)c1ccc2c3c(cccc13)C(=O)N2,,active: 11.7 µM
COc1ccc(C(=S)N2CCOCC2)cc1OS(=O)(=O)c1ccccc1[N+](=O)[O-],,"inconclusive: 10.4 µM [inhibitor, single point]"
CCOc1ccc2[nH]c(=O)c(CN(Cc3ccccc3)C(=O)N3CCCC3)cc2c1,,"inconclusive: 2.62 µM [inhibitor, full curve, poor fit]"
NNC(=O)c1sccc1OCc1ccc(F)cc1,,"inconclusive: 11.7 µM [inhibitor, single point]"
CCOc1ccc(CCNC(=O)COC(=O)/C=C/c2ccccc2OC)cc1OCC,,"inconclusive: 16.5 µM [inhibitor, single point]"
O=C1NC(c2ccccc2)=C(c2nc3ccccc3s2)C(c2ccc(F)cc2)N1 (stereo unspecified),,active: 13.1 µM
CCOc1ccccc1Nc1ccnc2cc(Cl)ccc12,inactive: 20.9%,

SMILES,"activity change, negative = inhibition",Potency
CCS(=O)(=O)c1nc(S(=O)(=O)c2ccc(C)cc2)c(N2CC(C)OC(C)C2)s1 (stereo unspecified),,active: 14.7 µM
Cc1ccc(CC2S/C(=C(/C#N)C(=O)NCc3ccco3)N(c3ccccc3)C2=O)cc1 (stereo unspecified),inactive: 14.7%,
COc1cc(/C=N/Nc2nc(-c3ccc(S(=O)(=O)N(C)C)cc3)cs2)ccc1O,,active: 8.28 µM
CN(Cc1ccccc1)C(=O)C(=O)c1cn(CC(=O)N2CCCC2)c2ccccc12,,"inconclusive: 13.1 µM [inhibitor, single point]"
COc1ccc(-c2nc(SCc3ccccc3)n(C(=O)c3ccco3)n2)cc1,inactive: -11.2%,
Cc1ccc(C)c(NS(=O)(=O)c2cc(C(=O)N3CCc4ccccc4C3)ccc2Cl)c1,,"inconclusive: 18.5 µM [inhibitor, single point]"
CN(C)c1cc[n+](CC(=O)c2ccc(-c3ccccc3)cc2)cc1,,"inconclusive: 0.0029 µM [inhibitor, full curve, poor fit]"
CCOc1nc(-c2ccccc2)ccc1-c1noc(-c2cccs2)n1,,"inconclusive: 9.28 µM [inhibitor, single point]"
CN(c1ccc(OCC(=O)NC2CCCC2)cc1)S(=O)(=O)c1cccs1,,"inconclusive: 13.1 µM [inhibitor, single point]"
CC(NC(=O)C(=O)NN=C1CCC(C(C)(C)C)CC1)c1ccccc1 (stereo unspecified),,"inconclusive: 13.1 µM [inhibitor, single point]"
COc1ccc(C2/C(=C(/O)c3ccc4c(c3)CC(C)O4)C(=O)C(=O)N2Cc2cccnc2)cc1 (stereo unspecified),,"inconclusive: 18.5 µM [inhibitor, single point]"
O=C(NCc1cccnc1)C1CCN(S(=O)(=O)c2cccnc2)CC1,,"inconclusive: 10.4 µM [inhibitor, single point]"
CCOc1ccc(C(=O)COc2ccc(NC(C)=O)cc2)cc1,,"inconclusive: 13.1 µM [inhibitor, single point]"
OC1CCCN(C(=S)Nc2ccc(SC(F)F)cc2)C1 (stereo unspecified),inactive: 114%,
CCOc1ccc(CNCCCSc2ncccn2)cc1OC,,"inconclusive: 4.65 µM [inhibitor, partial curve, poor fit]"
Cn1c(C=O)c(C#CC(C)(C)O)c2ccccc21,,"inconclusive: 5.22 µM [inhibitor, single point]"
Cc1ccnc(NS(=O)(=O)c2ccc(NC(=O)C3CC=CCC3C(=O)O)cc2)n1 (stereo unspecified),,"inconclusive: 10.4 µM [inhibitor, single point]"
CS(=O)(=O)CCC(C(=O)n1nnc2ccccc21)N1C(=O)c2ccccc2C1=O (stereo unspecified),,"inconclusive: 3.7 µM [inhibitor, partial curve, poor fit]"
Cc1cccc(NC(=O)/C(C#N)=C/c2cn(CC(=O)NCc3ccco3)c3ccccc23)c1,inactive: 22.4%,
CCCCn1c(N)c(N(CC(C)C)C(=O)CSCC(=O)Nc2ccc(OC)cc2)c(=O)[nH]c1=O,inactive: 11.7%,
Cc1onc(-c2ccccc2)c1C(=O)Nc1ccc(S(=O)(=O)N2CCCCC2)cc1,,"inconclusive: 18.5 µM [inhibitor, single point]"
COc1cc(C(=O)Nc2ccc(C(=O)c3cccs3)cc2)cc(OC)c1OC,,active: 9.28 µM
CCCN(CCC)CCNC(=O)C1CCN(Cc2nc(-c3ccc(Cl)cc3)oc2C)CC1,,"inconclusive: 2.94 µM [inhibitor, full curve]"
CC(C(=O)OCC(=O)c1ccc(Br)cc1)N1C(=O)C2C3CCC(C3)C2C1=O (stereo unspecified),,active: 11.7 µM

# Reformatted: results already given.
SMILES | activity change, negative = inhibition | Potency
COc1ccc(-c2nc(SCc3ccccc3)n(C(=O)c3ccco3)n2)cc1 | inactive: -11.2% | 
CCOc1nc(-c2ccccc2)ccc1-c1noc(-c2cccs2)n1 |  | inconclusive: 9.28 µM [inhibitor, single point]
OC1CCCN(C(=S)Nc2ccc(SC(F)F)cc2)C1 (stereo unspecified) | inactive: 114% | 
Cn1c(C=O)c(C#CC(C)(C)O)c2ccccc21 |  | inconclusive: 5.22 µM [inhibitor, single point]
CCCCn1c(N)c(N(CC(C)C)C(=O)CSCC(=O)Nc2ccc(OC)cc2)c(=O)[nH]c1=O | inactive: 11.7% | 

# More compounds

SMILES,"activity change, negative = inhibition",Potency
COc1ccccc1CNc1ccc(Br)cn1,,"inconclusive: 10.4 µM [inhibitor, single point]"
N#CCC(=O)N/N=C/c1ccc(OCC(=O)Nc2ccc(F)cc2)cc1,inactive: 44.4%,
CCCCn1nc(C(=O)Nc2cccc(C(=O)NC3CC3)c2)c2ccccc2c1=O,,active: 11.7 µM
O=C(NC1CC1)c1cc2cc(Br)ccc2s1,inactive: -10.2%,
O=C(NCc1cnc2ccccn12)C1CCC(=O)N(Cc2ccccc2F)C1 (stereo unspecified),inactive: -2.59%,
CCN(CC)CCNC(=O)c1ccc(NC(=O)c2cccc(S(=O)(=O)Nc3ccc(C)cc3)c2)cc1,,active: 1.17 µM
COc1ccccc1N=C1NC(=O)/C(=C/c2ccc(N(C)C)cc2)S1,,"inconclusive: 13.1 µM [inhibitor, single point]"
Cc1nc2c(sc(=S)n2Cc2ccco2)c(=O)n1CC(=O)Nc1ccc(F)cc1,inactive: 8.88%,
CC(C)(C)N(Cc1ccccc1)C(=O)CN1C(=O)NC2(CCCCCC2)C1=O,,"inconclusive: 18.5 µM [inhibitor, partial curve, poor fit]"
Cc1nc2cc(NS(=O)(=O)c3cccc4cccnc34)ccc2s1,,"inconclusive: 11.7 µM [inhibitor, single point]"
O=C(N/N=C/c1ccc([N+](=O)[O-])o1)C(=O)Nc1ccc(C(=O)O)cc1,,active: 2.33 µM
O=C(COC(=O)Cc1ccc(Cl)c(Cl)c1)Nc1ccc2[nH]c(=O)[nH]c2c1,inactive: 19%,
O=C(O)CSc1nnc(-c2ccco2)o1,,"inconclusive: 0.0026 µM [inhibitor, full curve, poor fit]"
Cc1cc(O)cc(C)c1Cl,,active: 8.49 µM
O=C(CN1CCN(S(=O)(=O)c2ccc(Cl)cc2)CC1)Nc1ccc2c(c1)CCC2,,"inconclusive: 18.5 µM [inhibitor, single point]"
CC1(NC(=O)CCc2ccccc2)CCN(CCCc2ccccc2)C1=O (stereo unspecified),,"inconclusive: 16.5 µM [inhibitor, single point]"
CCOC(=O)/C=c1\s/c(=C\c2ccc(C#N)cc2)c(=O)n1CC(=O)Nc1cccc(C)c1C,,"inconclusive: 18.5 µM [inhibitor, single point]"
COc1cc(C(=O)Nc2cc(C(F)(F)F)ccc2N2CCOCC2)ccc1O,,"inconclusive: 11.7 µM [inhibitor, single point]"
CCCCn1c(N)c(N(CC(C)C)C(=O)C2CCN(S(=O)(=O)c3ccc(OCC)cc3)CC2)c(=O)[nH]c1=O,,"inconclusive: 4.65 µM [inhibitor, partial curve]"
CCCCN(CCCC)CCCNC(=O)C12CN(Cc3ccccc3)CC1C(c1cccc([N+](=O)[O-])c1)=NO2 (stereo unspecified),,"inconclusive: 9.28 µM [inhibitor, single point]"
Cc1ccc(-c2nc(CS(=O)CC(=O)NC3CCC(C)CC3)c(C)o2)cc1 (stereo unspecified),,"inconclusive: 16.5 µM [inhibitor, single point]"
CC1Cc2ccccc2N1C(=O)CSc1nnc2c(n1)[nH]c1ccc(F)cc12 (stereo unspecified),inactive: -90%,
CCc1cc(C(=O)Nc2cc(S(=O)(=O)N(CC)CC)ccc2N2CCN(C)CC2)sc1C,,active: 2.62 µM
